Data from patent US20030181507A1, “Use of 3-substituted oxindole derivatives as kcnq potassium channel modulators” (priority 2000, published 2003).
For at least one compound, name, drawing or mass did not settle the structure.

Molecular target: T1, KCNQ4 (Homo sapiens, UniProt P56696)
T1 construct: expressed in transfected cells; host or cells: HEK-293
Assay: Membrane potential in current clamp mode, KCNQ4 expressing cell
Type: cell-based
Details: 10 μM in bath solution, whole cell, initial resting potential around −60 mV, sequential additions to same cell, FIG. 3
Procedure: KCNQ4 and KCNQ5 was sub-cloned into the mammalian expression vector pNS1n (NeuroSearch), a custom-designed derivative of pcDNA3Neo (InVitrogen). HEK-293 cells (American Type Culture Collection) were grown in DMEM (Life Technologies) supplemented with 10% FCS (Life Technologies) at 37° C. in 5% CO2.
One day prior to transfection, 10^6 cells were plated in a cell culture T25 flask (Nunc). Cells were transfected with 2.5 μg of the plasmid pNS1n_KCNQ4 or with 2.5 μg of the plasmid pNS1n_KCNQ5 using Lipofectamine (Life Technologies) according to the manufacturer's instructions. Cells transfected with pNS1n_KCNQ4 or pNS1n_KCNQ5 were selected in media supplemented with 0.5 mg/ml geneticin (G418; Life Technologies).
Single clones were picked and propagated in selection media for five passages after which they were considered stable. Following the cells were cultured in regular medium without selection agent. […]
Whole-cell currents were recorded using a HEKA EPC-9 amplifier and borosilicate glass micropipettes with tip resistances of 1.5-3 MΩ. […]
The membrane potential was measured in current clamp mode using the whole cell configuration of the patch clamp technique. A resting membrane potential of around −60 mV was initially recorded from this cell and the addition of 10 μM Compound 1 to the bath solution induced a hyper-polarisation of the membrane potential to −83 mV. […]

Question: For `CCOC(=O)Nc1ccc(NCc2ccc(F)cc2)cc1N` [Retigabine], which “membrane potential after addition of compound” value is on record?
Answer: −76 mV
